Measurements as given in the supplement of paper PMC10849652.
The other results are listed elsewhere or left out.

Sequences of proteins named here, by UniProt entry; tags and fusion partners are left off. A change or cut given only in a name is not applied to a line headed by its entry.
UniProt O95777: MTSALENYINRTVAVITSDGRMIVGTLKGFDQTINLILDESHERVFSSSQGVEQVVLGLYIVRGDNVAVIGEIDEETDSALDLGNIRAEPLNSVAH
UniProt Q66K74: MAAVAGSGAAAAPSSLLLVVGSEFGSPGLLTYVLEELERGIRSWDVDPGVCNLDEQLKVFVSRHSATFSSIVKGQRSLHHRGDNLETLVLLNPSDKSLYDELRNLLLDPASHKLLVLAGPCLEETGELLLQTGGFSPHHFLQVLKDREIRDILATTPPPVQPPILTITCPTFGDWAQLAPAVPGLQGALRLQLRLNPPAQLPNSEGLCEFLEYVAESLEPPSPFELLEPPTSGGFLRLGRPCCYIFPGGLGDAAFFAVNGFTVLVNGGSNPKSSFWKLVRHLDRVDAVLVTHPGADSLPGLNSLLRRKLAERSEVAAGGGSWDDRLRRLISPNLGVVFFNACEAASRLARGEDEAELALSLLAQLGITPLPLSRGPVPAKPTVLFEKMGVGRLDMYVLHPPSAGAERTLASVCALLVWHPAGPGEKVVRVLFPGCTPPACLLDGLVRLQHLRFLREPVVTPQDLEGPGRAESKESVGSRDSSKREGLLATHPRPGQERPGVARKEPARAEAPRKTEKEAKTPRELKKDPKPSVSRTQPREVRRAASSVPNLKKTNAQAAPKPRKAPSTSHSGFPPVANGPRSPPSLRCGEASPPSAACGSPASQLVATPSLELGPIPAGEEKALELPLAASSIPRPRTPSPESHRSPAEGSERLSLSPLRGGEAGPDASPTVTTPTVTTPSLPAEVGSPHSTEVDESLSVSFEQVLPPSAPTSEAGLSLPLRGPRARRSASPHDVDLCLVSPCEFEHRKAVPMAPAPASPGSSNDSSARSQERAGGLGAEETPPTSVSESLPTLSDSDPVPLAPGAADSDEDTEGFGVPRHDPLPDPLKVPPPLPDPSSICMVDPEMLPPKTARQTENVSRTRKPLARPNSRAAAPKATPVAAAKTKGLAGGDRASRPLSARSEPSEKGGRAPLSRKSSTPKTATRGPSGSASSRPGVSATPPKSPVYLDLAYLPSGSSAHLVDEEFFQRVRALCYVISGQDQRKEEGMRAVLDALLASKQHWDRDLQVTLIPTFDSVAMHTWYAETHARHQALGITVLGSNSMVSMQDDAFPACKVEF
UniProt Q8IWT6: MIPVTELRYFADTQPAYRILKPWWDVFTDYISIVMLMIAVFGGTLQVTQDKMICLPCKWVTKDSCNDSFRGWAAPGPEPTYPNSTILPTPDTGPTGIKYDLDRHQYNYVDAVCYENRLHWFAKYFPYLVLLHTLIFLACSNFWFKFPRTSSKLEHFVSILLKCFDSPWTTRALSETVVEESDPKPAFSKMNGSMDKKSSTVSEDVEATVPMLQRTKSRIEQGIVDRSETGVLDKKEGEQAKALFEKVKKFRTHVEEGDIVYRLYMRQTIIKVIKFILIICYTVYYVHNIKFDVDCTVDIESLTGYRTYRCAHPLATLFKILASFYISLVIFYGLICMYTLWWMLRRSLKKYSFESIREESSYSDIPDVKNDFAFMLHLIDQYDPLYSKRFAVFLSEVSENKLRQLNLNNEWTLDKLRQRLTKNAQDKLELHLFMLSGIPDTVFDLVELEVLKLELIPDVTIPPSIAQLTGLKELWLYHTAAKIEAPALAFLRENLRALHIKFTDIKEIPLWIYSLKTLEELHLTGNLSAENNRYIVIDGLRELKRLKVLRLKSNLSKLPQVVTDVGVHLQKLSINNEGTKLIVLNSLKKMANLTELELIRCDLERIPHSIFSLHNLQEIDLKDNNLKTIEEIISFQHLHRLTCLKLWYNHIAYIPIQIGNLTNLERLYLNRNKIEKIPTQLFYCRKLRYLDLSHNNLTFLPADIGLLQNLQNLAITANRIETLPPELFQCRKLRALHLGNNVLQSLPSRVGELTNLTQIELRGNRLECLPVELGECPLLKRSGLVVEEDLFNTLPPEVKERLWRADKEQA
UniProt P46734: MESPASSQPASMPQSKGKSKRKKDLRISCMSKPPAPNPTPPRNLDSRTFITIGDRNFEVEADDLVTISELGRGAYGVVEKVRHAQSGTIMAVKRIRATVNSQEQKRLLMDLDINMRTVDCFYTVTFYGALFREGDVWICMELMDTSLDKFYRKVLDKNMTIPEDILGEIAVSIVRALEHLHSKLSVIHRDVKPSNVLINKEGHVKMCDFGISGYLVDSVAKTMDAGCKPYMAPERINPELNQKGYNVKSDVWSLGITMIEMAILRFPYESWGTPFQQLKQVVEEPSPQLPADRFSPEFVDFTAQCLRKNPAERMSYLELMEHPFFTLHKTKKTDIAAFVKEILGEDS
UniProt Q9NU23: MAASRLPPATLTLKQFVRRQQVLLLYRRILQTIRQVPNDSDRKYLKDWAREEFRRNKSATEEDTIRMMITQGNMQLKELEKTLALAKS
UniProt P53778: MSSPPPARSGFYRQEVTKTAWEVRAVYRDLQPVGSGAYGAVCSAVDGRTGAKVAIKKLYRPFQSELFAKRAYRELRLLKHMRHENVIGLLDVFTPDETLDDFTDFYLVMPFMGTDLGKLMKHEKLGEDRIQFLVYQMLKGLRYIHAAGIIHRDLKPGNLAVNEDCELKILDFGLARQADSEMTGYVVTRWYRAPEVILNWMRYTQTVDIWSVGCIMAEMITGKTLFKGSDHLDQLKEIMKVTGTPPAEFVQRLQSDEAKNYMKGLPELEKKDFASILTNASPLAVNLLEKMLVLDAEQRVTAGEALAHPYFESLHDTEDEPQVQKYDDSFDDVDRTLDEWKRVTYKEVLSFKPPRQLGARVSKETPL
UniProt Q9Y4Z0: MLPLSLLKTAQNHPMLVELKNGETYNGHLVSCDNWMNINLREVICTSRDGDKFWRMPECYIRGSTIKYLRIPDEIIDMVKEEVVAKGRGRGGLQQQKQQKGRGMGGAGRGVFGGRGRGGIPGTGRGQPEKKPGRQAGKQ
UniProt P56192: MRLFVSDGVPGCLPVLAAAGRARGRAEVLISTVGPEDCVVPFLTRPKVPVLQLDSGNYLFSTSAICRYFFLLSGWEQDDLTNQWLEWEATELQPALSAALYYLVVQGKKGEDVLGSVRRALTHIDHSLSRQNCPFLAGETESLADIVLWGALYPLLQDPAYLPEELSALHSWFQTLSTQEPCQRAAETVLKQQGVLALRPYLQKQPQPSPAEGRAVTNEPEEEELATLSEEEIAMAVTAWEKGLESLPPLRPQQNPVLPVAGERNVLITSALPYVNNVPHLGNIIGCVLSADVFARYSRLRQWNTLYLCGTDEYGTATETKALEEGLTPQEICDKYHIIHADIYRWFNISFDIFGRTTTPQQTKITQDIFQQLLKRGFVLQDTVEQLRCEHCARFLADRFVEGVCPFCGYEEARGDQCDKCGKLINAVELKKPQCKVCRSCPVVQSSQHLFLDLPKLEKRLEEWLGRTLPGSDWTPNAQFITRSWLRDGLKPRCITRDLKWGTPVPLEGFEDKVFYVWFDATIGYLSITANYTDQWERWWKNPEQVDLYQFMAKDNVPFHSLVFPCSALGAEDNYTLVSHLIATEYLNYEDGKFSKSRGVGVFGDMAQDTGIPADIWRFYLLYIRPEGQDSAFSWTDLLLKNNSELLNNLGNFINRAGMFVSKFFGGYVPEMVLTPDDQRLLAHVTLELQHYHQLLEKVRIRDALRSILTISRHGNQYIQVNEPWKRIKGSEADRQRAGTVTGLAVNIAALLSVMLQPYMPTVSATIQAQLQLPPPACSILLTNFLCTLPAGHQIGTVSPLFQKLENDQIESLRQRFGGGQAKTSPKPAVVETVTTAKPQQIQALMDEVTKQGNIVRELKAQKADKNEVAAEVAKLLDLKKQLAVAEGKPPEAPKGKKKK
UniProt O00754: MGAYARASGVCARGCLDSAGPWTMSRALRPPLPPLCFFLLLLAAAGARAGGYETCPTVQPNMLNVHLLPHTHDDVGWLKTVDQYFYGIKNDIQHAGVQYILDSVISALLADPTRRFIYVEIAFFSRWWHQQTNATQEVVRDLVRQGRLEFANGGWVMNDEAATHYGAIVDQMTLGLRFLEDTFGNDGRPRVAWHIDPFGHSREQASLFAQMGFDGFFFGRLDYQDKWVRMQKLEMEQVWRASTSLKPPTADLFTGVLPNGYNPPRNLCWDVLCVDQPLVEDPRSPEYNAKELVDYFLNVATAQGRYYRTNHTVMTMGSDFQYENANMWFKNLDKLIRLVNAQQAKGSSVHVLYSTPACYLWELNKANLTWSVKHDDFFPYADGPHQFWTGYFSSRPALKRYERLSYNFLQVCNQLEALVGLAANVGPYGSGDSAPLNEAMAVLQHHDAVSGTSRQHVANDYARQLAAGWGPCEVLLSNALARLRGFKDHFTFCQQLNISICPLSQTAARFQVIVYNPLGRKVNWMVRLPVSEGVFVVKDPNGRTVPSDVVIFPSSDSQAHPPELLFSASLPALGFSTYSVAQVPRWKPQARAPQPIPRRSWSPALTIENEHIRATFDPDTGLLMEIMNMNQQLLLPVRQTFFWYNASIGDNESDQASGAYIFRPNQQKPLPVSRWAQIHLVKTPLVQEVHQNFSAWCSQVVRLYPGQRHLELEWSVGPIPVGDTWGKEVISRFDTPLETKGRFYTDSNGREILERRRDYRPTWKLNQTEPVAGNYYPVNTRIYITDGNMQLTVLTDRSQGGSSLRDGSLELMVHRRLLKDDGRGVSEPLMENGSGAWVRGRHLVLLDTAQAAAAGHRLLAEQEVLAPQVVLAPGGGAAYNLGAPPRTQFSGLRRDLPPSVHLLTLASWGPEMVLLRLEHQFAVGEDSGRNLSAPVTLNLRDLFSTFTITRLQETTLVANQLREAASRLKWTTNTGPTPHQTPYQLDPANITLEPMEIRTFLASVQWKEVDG
UniProt P02788: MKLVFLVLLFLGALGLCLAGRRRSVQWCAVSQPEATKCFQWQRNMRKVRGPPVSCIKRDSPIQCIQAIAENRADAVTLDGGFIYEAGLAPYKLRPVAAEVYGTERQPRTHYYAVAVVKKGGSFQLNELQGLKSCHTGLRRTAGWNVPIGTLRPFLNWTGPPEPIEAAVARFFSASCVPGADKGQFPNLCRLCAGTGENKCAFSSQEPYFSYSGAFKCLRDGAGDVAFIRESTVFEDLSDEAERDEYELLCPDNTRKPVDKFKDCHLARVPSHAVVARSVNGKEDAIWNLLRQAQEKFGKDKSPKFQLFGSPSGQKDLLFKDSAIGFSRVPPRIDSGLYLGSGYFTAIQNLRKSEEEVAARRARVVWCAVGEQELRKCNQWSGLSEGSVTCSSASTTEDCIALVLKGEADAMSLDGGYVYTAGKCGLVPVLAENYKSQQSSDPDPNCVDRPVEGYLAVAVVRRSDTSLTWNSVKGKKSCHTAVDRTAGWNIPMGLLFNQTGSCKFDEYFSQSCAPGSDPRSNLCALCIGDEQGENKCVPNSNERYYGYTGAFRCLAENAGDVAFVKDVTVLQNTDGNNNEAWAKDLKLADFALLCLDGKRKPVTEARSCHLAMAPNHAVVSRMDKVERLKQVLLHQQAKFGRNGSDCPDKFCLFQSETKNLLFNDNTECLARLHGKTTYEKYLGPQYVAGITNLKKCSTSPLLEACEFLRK
UniProt Q7L5Y9: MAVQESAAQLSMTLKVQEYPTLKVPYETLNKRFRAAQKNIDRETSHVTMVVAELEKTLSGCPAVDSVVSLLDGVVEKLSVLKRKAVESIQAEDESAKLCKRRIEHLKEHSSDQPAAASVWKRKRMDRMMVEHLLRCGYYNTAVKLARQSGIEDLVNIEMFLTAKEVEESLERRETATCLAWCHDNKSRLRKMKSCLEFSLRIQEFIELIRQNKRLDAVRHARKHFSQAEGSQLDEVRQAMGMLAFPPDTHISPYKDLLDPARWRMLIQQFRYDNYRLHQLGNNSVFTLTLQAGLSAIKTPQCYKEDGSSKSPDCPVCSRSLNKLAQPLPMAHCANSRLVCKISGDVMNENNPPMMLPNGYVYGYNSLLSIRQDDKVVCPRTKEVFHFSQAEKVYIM
UniProt Q13257, whole entry, looked up: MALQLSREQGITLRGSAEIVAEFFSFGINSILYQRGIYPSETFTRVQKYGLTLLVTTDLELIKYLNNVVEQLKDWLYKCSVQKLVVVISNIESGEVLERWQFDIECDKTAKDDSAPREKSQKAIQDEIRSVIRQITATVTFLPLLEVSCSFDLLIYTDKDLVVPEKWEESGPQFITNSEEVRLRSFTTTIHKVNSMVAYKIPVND
UniProt Q7Z3D4: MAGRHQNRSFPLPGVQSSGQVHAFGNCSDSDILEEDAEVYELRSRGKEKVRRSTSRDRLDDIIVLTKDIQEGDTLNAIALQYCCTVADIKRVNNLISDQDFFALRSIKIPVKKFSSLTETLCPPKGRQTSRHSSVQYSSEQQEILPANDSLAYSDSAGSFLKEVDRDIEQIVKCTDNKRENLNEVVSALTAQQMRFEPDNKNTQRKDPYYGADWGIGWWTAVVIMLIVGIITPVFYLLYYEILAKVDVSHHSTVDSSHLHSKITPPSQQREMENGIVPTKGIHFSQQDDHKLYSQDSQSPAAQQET

Legend:
Test in all cases: log2 fold change, soluble protein after heating vs DMSO (PISA); higher = thermal stabilisation; K562 cells, 10 uM, 30 min; active = over 0.2 and 3.5 SD of the protein, either way, in both replicates (recomputed)
[1] = compound: NC(=O)Nc1cc(-c2cccc(F)c2)sc1C(=O)N[C@H]1CCCNC1
In short: (§1)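 K562 cells (2×10^6 cells/mL) were treated with 10 μM compound for 30 min, and aliquots were heated for 3 min over 48°C-58°C. Pooled aliquots were extracted in PBS with 0.5% NP-40 at 4°C, and the supernatant after 21,000xg for 90 min was measured by TMTpro 16plex LC-MS/MS with channel sums equalised. Reported thermal stability, relative to control samples and from duplicates, is a log2 fold change.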

[2] = compound: NC(=O)c1cnc(N[C@@H]2CCCC[C@@H]2N)nc1Nc1cccc(-n2nccn2)c1
In short: as §1

[3] = compound: NC1(c2ccc(-c3nc4ccn5c(=O)[nH]nc5c4cc3-c3ccccc3)cc2)CCC1
In short: as §1

[4] = compound: NCC(=O)Nc1ccc(-n2nc(C(F)(F)F)cc2-c2ccc3c(ccc4ccccc43)c2)cc1
In short: as §1

[5] = compound: Nc1ccccc1NC(=O)c1ccc(CNC(=O)OCc2cccnc2)cc1 [entinostat]
In short: as §1

[6] = compound: O=C(CCCCCCC(=O)Nc1ccccc1)NO [vorinostat]
In short: as §1

[7] = compound: O=C(CCCCCCNC(=O)c1cnc(N(c2ccccc2)c2ccccc2Cl)nc1)NO [citarinostat]
In short: as §1

[8] = compound: O=C(O)c1ccc2c(c1)nc(Nc1cccc(Cl)c1)c1ccncc12 [silmitasertib]
In short: as §1

[9] = compound: O=C1NC(=O)C(c2cnc3ccccn23)=C1c1cn2c3c(cc(F)cc13)CN(C(=O)N1CCCCC1)CC2
In short: as §1

[10] = compound: c1cc(OCCN2CCCCC2)cc(-c2n[nH]c3ccc(-c4nnc[nH]4)cc23)c1
In short: as §1

Measured: log2 fold change

MAN1A2 (UniProt O60476)
inactive: [1] 0.036 | [2] 0.013 | [3] -0.082 | [4] -0.065 | [5] 0.009 | [6] -0.007 | [7] 0.012 | [8] 0.02 | [9] -0.051 | [10] -0.047

LSM8 (UniProt O95777)
inactive: [1] 0.002 | [2] -0.002 | [3] -0.022 | [4] 0 | [5] -0.046 | [6] -0.004 | [7] 0.051 | [8] -0.006 | [9] 0.052 | [10] -0.06

MAP1S (UniProt Q66K74)
inactive: [1] -0.025 | [2] 0.031 | [3] -0.045 | [4] 0.006 | [5] -0.016 | [6] 0.013 | [7] 0.077 | [8] -0.036 | [9] -0.007 | [10] -0.025

MAP3K4 isoform 2 (UniProt Q9Y6R4)
inactive: [1] 0.036 | [2] -0.025 | [3] -0.104 | [4] -0.025 | [5] -0.027 | [6] -0.019 | [7] 0.006 | [8] 0 | [9] -0.029 | [10] -0.075

MAPK9 (UniProt P45984)
inactive: [1] -0.058 | [2] -0.023 | [3] -0.053 | [4] -0.022 | [5] -0.028 | [6] -0.058 | [7] -0.022 | [8] -0.012 | [9] -0.102 | [10] 0.187

LRRC8A (UniProt Q8IWT6)
inactive: [1] 0.039 | [2] 0.067 | [3] 0.055 | [4] -0.044 | [5] -0.067 | [6] -0.026 | [7] 0.05 | [8] 0.075 | [9] 0.135 | [10] -0.048

MAGI1 (UniProt Q96QZ7)
inactive: [1] -0.069 | [2] -0.042 | [3] 0.003 | [4] -0.022 | [5] 0.019 | [6] 0.07 | [7] 0.022 | [8] 0.125 | [9] 0.035 | [10] -0.081

Pulled one by one from the entries so far, 2 records:
MAP1S (UniProt Q66K74)
inactive: [1] -0.025 | [2] 0.031 | [3] -0.045 | [4] 0.006 | [5] -0.016 | [6] 0.013 | [7] 0.077 | [8] -0.036 | [9] -0.007 | [10] -0.025

LSM8 (UniProt O95777)
inactive: [1] 0.002 | [2] -0.002 | [3] -0.022 | [4] 0 | [5] -0.046 | [6] -0.004 | [7] 0.051 | [8] -0.006 | [9] 0.052 | [10] -0.06

(list continues)

MAN2A1 (UniProt Q16706)
inactive: [1] 0.03 | [2] -0.005 | [3] -0.046 | [4] -0.002 | [5] -0.015 | [6] -0.033 | [7] -0.034 | [8] -0.028 | [9] -0.002 | [10] -0.022

MAP2K3 isoform 3 (UniProt P46734)
inactive: [1] -0.04 | [2] -0.018 | [3] -0.14 | [4] -0.025 | [5] 0.068 | [6] 0.02 | [7] -0.126 | [8] -0.024 | [9] -0.188 | [10] -0.052

LYPLAL1 (UniProt Q5VWZ2)
inactive: [1] -0.013 | [2] -0.077 | [3] -0.076 | [4] -0.022 | [5] 0.037 | [6] 0.028 | [7] 0.056 | [8] 0.015 | [9] -0.062 | [10] -0.006

LYRM2 (UniProt Q9NU23)
inactive: [1] 0.041 | [2] -0.016 | [3] -0.019 | [4] -0.034 | [5] 0.043 | [6] -0.064 | [7] 0.118 | [8] 0.022 | [9] -0.059 | [10] -0.031

MACF1 (UniProt H3BQK9)
inactive: [1] 0.002 | [2] 0 | [3] -0.02 | [4] -0.154 | [5] 0.054 | [6] 0.08 | [7] 0.098 | [8] 0.139 | [9] 0.029 | [10] -0.187

MAPK12 (UniProt P53778)
active: [9] 0.348
inactive: [1] -0.076 | [2] -0.095 | [3] -0.09 | [4] 0.014 | [5] 0.012 | [6] 0.08 | [7] 0.046 | [8] -0.006 | [10] 0.018

MAP7 isoform 7 (UniProt Q14244)
inactive: [1] 0.102 | [2] 0.077 | [3] 0.169 | [4] 0.202 | [5] -0.085 | [6] 0.161 | [7] 0.081 | [8] 0.108 | [9] 0.188 | [10] -0.193

LSM4 (UniProt Q9Y4Z0)
inactive: [1] 0.033 | [2] 0.093 | [3] 0.016 | [4] 0.084 | [5] 0.008 | [6] 0.016 | [7] 0.058 | [8] 0.002 | [9] 0.036 | [10] -0.05

LUC7L2 (UniProt Q9Y383)
inactive: [1] -0.221 | [2] -0.025 | [3] 0.09 | [4] -0.133 | [5] 0.025 | [6] 0.029 | [7] 0.074 | [8] -0.233 | [9] 0.002 | [10] -0.095

MAGEB1 (UniProt P43366)
inactive: [1] 0.108 | [2] 0.035 | [3] 0.217 | [4] 0.115 | [5] -0.014 | [6] 0.053 | [7] -0.037 | [8] 0.231 | [9] 0.336 | [10] -0.239

MAP1LC3B2 (UniProt A6NCE7)
inactive: [1] -0.023 | [2] -0.022 | [3] -0.128 | [4] -0.085 | [5] 0.012 | [6] -0.058 | [7] 0.046 | [8] -0.015 | [9] -0.001 | [10] -0.103

MARS (UniProt P56192)
inactive: [1] 0.016 | [2] -0.053 | [3] -0.016 | [4] 0.002 | [5] 0.017 | [6] 0.072 | [7] -0.01 | [8] 0.047 | [9] 0.116 | [10] -0.08

MAN2B1 (UniProt O00754)
inactive: [1] 0.024 | [2] 0.033 | [3] -0.005 | [4] 0.091 | [5] 0.007 | [6] 0.009 | [7] 0.06 | [8] 0.037 | [9] 0.038 | [10] -0.011

LTF (UniProt P02788)
inactive: [1] 0.68 | [2] 0.106 | [3] 0.001 | [4] -0.006 | [5] -0.079 | [6] -0.021 | [7] 0.066 | [8] 0.195 | [9] 0.071 | [10] 0.775

MAP7D1 (UniProt Q3KQU3)
inactive: [1] 0.047 | [2] 0.091 | [3] 0.21 | [4] 0.078 | [5] -0.001 | [6] -0.022 | [7] -0.061 | [8] 0.082 | [9] 0.14 | [10] -0.177

MARCHF6 (UniProt O60337)
inactive: [1] 0.105 | [2] -0.098 | [3] -0.075 | [4] -0.023 | [5] 0 | [6] -0.013 | [7] 0.063 | [8] -0.062 | [9] -0.011 | [10] -0.063

MALSU1 (UniProt Q96EH3)
inactive: [1] -0.024 | [2] -0.07 | [3] 0 | [4] -0.035 | [5] -0.031 | [6] -0.173 | [7] 0.008 | [8] 0.01 | [9] 0.002 | [10] -0.041

MAEA (UniProt Q7L5Y9)
inactive: [1] -0.021 | [2] -0.024 | [3] -0.086 | [4] 0.013 | [5] 0.056 | [6] -0.003 | [7] 0.038 | [8] 0.047 | [9] 0.036 | [10] -0.058

MAD2L1 (UniProt Q13257)
inactive: [1] -0.013 | [2] -0.09 | [3] -0.193 | [4] -0.124 | [5] 0.036 | [6] 0.021 | [7] 0.014 | [8] 0.072 | [9] -0.032 | [10] 0.006

LYSMD3 (UniProt Q7Z3D4)
inactive: [1] 0.151 | [2] 0.224 | [3] 0.008 | [4] -0.119 | [5] 0.003 | [6] 0.08 | [7] -0.007 | [8] 0.012 | [9] -0.051 | [10] 0.038
